Some entries share one result that the patent states for a list of compounds.
Test system: chick chorioallantoic membrane
Assay: Ex ovo CAM assay, treatments eluting from collagen gels
Format: in vivo
Details: 100 μM free peptide, after 24 hours, compared to matched control gels on the same egg
Procedure: Fertilized Hyline eggs obtained from the Avian Facility at UC Davis were incubated at 37° C. for 72 hours with 6 rotations per day at 80% humidity in a Grumbach egg incubator. On day 3, eggs were cracked open into disinfected weighboats (VWR) and covered with lids from square petri dishes (Fisher), and the embryos developed over a week in the incubator. On day 10, treatments encapsulated in collagen I gels were gently placed on the developing CAM. For experiments involving treatments freely eluting from the collagen gels, 100 μL of gel was polymerized in a 10-mm diameter rubber mold against a sterilized glass slide, and 1 treatment gel and 1 control gel was placed per CAM. The number of vessels in a 2-mm radius immediately surrounding the gel was manually counted in imageJ immediately after placement and 24 hours later to determine changes surrounding vessels. The change in vessels over 24 hours for treatment gels were normalized to the respective change in the control gel on the same developing embryo.

Substance	increase in number of blood vessels in a 2-mm radius surrounding implanted gels
Ac-KLT WQE LYQ LKY KGI-amide [QK, reference compound]	30-50%
KLT WQE LYQ LKY KGI GSG-hydrazide (KLTWQELYQLKYKGIGSG; C-terminal hydrazide) [VEGFp, QK-derived peptide-hydrazide]	30-50%
